The structures appear in SMILES notation.

For this data set, the system named is A549 cells. Description: IC50 for A549 cells in static 2D cultures (taken from the literature). In kind it is cell-based. Conditions: A549 static 2D IC50 versus human Cmax.

In the case of `NC1(c2ccc(-c3nc4ccn5c(=O)[nH]nc5c4cc3-c3ccccc3)cc2)CCC1` [MK2206], the “fold increase of static 2D IC50 over Cmax” value is around 19 fold.

`Cn1cnc2c(F)c(Nc3ccc(Br)cc3Cl)c(C(=O)NOCCO)cc21` [AZD6244/Selumetinib, Selumetinib]: the “fold increase of static 2D IC50 over Cmax” value came out at 3.5 fold.

For the origin of these results see US11008549B2, “In vitro model for a tumor microenvironment” (HemoShear, LLC, priority 2013, dated 2021).
